According to the supplement of paper PMC12823440, “Inhibitors supercharge kinase turnover through native proteolytic circuits” (Nature, 2025):
The list shows a part of the results. Hit calls seldom repeat between salt and free forms of one compound.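 Kinases were expressed as nanoluciferase fusions in K562 cells and luminescence was read every 4 h between 2 and 18 h as percent of control, DMSO set to 100% and a positive control to 0%. A time point counts as decreased when the signal drops significantly (2 sigma). The hit call is the authors' own, does not follow from the count of time points alone, and its rule is not shown.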

Protein sequences, listed by entry. Tags and fused reporters are not part of them. Lines headed by an entry give the natural chain unless they say otherwise; changes in a name come on top.
UniProt Q9UQM7, whole entry: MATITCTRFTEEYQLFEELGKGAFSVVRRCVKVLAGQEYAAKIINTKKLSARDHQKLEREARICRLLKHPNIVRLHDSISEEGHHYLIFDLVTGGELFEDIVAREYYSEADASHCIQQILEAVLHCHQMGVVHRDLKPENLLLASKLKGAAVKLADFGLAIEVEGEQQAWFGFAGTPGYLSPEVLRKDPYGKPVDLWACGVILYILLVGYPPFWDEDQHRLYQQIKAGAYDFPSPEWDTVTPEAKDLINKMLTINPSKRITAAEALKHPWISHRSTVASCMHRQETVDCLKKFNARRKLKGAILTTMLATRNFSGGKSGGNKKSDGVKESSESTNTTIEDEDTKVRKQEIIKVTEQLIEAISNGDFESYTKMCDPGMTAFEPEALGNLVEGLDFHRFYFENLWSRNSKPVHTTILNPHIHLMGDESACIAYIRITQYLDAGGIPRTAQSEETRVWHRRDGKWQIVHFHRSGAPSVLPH
UniProt Q13555: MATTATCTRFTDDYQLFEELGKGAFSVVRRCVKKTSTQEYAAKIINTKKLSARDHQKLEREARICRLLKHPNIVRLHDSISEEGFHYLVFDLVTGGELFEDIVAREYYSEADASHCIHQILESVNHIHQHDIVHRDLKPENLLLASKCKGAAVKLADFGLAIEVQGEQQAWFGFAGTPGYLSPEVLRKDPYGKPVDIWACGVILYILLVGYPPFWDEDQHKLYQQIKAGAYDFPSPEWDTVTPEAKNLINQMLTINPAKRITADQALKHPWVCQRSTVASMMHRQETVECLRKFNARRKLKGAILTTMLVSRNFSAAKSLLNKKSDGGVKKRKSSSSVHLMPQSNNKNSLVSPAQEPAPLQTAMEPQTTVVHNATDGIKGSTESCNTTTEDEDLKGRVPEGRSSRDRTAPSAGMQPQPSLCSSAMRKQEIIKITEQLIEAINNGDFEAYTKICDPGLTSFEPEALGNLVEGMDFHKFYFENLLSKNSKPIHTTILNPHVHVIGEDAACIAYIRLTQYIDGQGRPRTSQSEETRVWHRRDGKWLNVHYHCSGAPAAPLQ
UniProt Q15131: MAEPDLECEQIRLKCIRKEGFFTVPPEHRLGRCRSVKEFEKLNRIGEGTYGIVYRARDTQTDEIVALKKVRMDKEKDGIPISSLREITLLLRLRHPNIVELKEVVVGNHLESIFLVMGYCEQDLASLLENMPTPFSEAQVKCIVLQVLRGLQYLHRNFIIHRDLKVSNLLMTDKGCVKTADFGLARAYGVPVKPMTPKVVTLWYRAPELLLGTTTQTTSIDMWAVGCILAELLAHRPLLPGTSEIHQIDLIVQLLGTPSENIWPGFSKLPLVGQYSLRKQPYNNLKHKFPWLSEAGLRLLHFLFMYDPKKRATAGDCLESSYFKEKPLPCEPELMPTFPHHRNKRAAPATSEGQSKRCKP
UniProt Q00526: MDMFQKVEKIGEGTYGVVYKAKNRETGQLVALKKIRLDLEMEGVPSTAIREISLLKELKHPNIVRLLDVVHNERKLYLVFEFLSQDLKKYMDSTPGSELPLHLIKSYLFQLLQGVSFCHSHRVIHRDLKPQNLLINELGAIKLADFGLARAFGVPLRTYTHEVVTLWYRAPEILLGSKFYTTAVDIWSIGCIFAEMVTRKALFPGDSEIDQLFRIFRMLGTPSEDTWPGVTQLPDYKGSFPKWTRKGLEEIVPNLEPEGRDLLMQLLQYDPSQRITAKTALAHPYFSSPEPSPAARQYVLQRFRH
UniProt Q00535, whole entry, looked up: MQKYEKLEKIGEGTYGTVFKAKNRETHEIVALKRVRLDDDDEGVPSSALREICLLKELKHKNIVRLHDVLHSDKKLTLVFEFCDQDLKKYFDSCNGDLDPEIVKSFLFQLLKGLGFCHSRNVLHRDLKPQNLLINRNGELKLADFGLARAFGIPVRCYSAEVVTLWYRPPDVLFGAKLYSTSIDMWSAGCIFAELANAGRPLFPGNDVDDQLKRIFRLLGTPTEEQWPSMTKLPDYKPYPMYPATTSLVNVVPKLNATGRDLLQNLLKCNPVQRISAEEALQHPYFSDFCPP
UniProt Q00534, whole entry: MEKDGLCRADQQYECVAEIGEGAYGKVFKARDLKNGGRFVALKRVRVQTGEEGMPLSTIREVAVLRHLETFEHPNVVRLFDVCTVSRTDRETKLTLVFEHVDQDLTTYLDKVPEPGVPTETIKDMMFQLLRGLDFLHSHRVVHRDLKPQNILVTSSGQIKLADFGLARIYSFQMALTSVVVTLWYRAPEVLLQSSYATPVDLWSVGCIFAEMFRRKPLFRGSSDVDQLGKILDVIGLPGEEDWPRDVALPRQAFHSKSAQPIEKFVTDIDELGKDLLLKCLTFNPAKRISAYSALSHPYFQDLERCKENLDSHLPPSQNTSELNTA
UniProt O96017, whole entry: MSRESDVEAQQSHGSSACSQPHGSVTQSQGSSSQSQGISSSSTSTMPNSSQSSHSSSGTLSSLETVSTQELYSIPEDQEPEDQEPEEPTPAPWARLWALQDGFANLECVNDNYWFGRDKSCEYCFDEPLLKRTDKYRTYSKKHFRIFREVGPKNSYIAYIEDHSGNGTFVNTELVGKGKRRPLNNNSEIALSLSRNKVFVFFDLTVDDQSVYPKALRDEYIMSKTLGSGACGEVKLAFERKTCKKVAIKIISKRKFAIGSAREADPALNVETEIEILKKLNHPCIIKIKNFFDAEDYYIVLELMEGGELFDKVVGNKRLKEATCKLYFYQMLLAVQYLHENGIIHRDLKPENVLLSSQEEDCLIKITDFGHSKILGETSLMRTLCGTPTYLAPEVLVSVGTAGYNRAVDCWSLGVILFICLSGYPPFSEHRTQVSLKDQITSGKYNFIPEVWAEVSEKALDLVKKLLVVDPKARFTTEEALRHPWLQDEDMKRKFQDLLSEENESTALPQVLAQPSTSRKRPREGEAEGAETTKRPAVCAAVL
UniProt P07333, whole entry: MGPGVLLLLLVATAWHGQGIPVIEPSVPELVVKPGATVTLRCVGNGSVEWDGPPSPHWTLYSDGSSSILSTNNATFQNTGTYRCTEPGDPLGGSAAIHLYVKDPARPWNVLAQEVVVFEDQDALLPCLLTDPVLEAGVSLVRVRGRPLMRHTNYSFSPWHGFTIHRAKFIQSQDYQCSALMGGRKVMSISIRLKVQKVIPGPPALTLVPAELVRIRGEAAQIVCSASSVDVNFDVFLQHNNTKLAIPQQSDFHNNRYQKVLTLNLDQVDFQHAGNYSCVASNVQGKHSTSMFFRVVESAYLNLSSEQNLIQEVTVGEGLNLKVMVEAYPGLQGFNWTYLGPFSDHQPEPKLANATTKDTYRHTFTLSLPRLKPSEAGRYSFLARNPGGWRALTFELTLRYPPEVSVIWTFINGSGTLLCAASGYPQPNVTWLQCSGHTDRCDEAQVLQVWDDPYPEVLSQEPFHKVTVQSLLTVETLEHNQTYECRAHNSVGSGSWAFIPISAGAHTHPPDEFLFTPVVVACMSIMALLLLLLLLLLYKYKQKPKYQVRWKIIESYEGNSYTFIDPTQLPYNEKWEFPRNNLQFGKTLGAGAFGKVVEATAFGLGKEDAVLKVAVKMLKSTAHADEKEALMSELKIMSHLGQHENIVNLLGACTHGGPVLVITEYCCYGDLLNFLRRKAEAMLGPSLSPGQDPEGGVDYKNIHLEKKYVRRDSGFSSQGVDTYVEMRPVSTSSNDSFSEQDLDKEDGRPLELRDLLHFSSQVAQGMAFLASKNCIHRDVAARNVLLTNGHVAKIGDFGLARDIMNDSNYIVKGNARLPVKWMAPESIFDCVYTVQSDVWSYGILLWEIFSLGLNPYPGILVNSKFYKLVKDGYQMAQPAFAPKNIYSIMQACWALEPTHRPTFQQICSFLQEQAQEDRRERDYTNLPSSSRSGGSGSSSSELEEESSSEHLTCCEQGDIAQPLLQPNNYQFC
UniProt P41240: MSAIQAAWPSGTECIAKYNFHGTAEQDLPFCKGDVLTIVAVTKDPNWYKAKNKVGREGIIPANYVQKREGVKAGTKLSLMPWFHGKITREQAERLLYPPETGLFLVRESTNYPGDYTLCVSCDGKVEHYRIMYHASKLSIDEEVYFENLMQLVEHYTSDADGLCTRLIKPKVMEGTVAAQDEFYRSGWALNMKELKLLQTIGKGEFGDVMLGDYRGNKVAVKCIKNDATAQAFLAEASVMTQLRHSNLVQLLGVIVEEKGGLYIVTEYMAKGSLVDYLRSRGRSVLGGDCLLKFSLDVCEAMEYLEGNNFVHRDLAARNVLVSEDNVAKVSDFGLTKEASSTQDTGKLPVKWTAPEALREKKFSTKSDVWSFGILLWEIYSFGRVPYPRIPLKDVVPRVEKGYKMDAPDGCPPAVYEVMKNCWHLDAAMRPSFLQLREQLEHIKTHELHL

Key:
Assay in all cases: number of time points (of 5) at which kinase-Nluc abundance scored as decreased, DMSO-normalised (count); higher = more persistent destabilization
Details in all cases: K562; 2-18 h
CAMK2A = CAMK2A (UniProt Q9UQM7)
CAMK2G = CAMK2G (UniProt Q13555)
CDK10 = CDK10 (UniProt Q15131)
CDK2 = CDK2 (UniProt P24941)
CDK3 = CDK3 (UniProt Q00526)
CDK5 = CDK5 (UniProt Q00535)
CDK6 = CDK6 (UniProt Q00534)
CHEK2 = CHEK2 (UniProt O96017)
CSF1R = CSF1R (UniProt P07333)
CSK = CSK (UniProt P41240)

Measured: number of time points

CC1(N)CCN(c2cccnc2NC(=O)c2nc(-c3ncccc3C(F)(F)F)cnc2N)CC1 [Darovasertib] (10 µM)
0: all assays above

Nc1ncc(-c2ccnc(Nc3ccncc3)n2)c(CC2CC2)n1 (10 µM)
0: all assays above

NC[C@@](O)(c1ccc(Cl)cc1)c1ccc(-c2cn[nH]c2)cc1 (10 µM)
0: all assays above

Brc1ccc(CSc2nc3ccccc3o2)cc1 [BMP signaling agonist sb4] (10 µM)
0: all assays above

O=C(NCCO)c1cc(C(=O)NCCO)cc(C(=O)NCCO)c1 (10 µM)
0: all assays above

C=CC(=O)Nc1cc(Nc2nccc(-c3cn(C)c4ccccc34)n2)c(OC)cc1OCCN(C)C [Rezivertinib] (2.5 µM)
5: CDK6
0: all other assays above

N#Cc1ccc(-c2cnc3[nH]cc(NC(=O)c4cccnc4)c3c2)cc1 (10 µM)
0: all assays above

N[C@@H]1CCCN(c2c(/C=C3\SC(=O)NC3=O)cccc2-c2ccccc2)C1 (10 µM)
0: all assays above

CNC(=O)c1cc2c(Oc3ccc(NC(=O)C4(C(=O)Nc5ccc(F)cc5)CC4)cc3)ccnc2cc1OC (2.5 µM)
1: CAMK2G | CDK10
2: CHEK2
3: CSF1R
0: all other assays above

Quoted from the listing (two entries):
N[C@@H]1CCCN(c2c(/C=C3\SC(=O)NC3=O)cccc2-c2ccccc2)C1 (10 µM)
0: all assays above

CNC(=O)c1cc2c(Oc3ccc(NC(=O)C4(C(=O)Nc5ccc(F)cc5)CC4)cc3)ccnc2cc1OC (2.5 µM)
1: CAMK2G | CDK10
2: CHEK2
3: CSF1R
0: all other assays above

Later entries:

Nc1nc2c(nc(Br)n2[C@@H]2O[C@@H]3COP(=O)(O)O[C@H]3[C@H]2O)c(=O)[nH]1 [8-Bromo-cGMP (sodium)] (10 µM)
1: CDK6
0: all other assays above

CCc1c[nH]c2ncnc(N3CC[C@](N)(CNC(=O)c4ccc(F)cc4F)C3)c12 (10 µM)
0: all assays above

C=CC(=O)N1CCN(C(=O)CNc2cc(I)c(Cl)cc2O)CC1 [K-Ras(G12C) inhibitor 12] (10 µM)
0: all assays above

NS(=O)(=O)c1ccc(Nc2nc(-c3cccc(-c4ccccc4)c3)c3[nH]cnc3n2)cc1 (10 µM)
0: all assays above

CN(C)c1ccc(-c2nc3ncc(Cl)c(N4CCN(CC(=O)Nc5nccs5)CC4)c3[nH]2)cc1 (2 µM)
0: all assays above

COc1cc(N2CCC(N3CCN(C)CC3)CC2)ccc1Nc1ncc(Cl)c(-c2c[nH]c3ccccc23)n1 (2.5 µM)
0: all assays above

Cc1cc(-n2c(=O)ccc3c[nH]c4nccc-4c32)ccc1F (10 µM)
0: all assays above

Nc1nccc(-c2c(-c3ccc(F)cc3)ncn2C2CCCCC2)n1 (10 µM)
0: all assays above

O=C(Nc1cc(Cl)cc2c1[nH]c1cnccc12)c1cccnc1 (10 µM)
0: all assays above

O=C1Nc2ccc(CN3C(=O)CSC3=O)cc2/C1=C/c1cc(CN2CCOCC2)c[nH]1 (10 µM)
0: all assays above

COc1ccc(Br)cc1NC(=O)Nc1cccc2c1ccn2Cc1ccnc(N)c1 (2.5 µM)
0: all assays above

O=C(O)[C@H]1O[C@@H](Oc2cc3oc(-c4ccc(O)cc4)cc(=O)c3c(O)c2O)[C@H](O)[C@@H](O)[C@@H]1O [Scutellarin] (10 µM)
0: all assays above

COc1ccc(Nc2ncc(C(F)(F)F)c(NC3CC3)n2)cc1OC (10 µM)
0: all assays above

CCCCCC(=O)N[C@@H](Cc1ccc(O)cc1)C(=O)OC (10 µM)
0: all assays above

Nc1nc(N)c2nc(-c3cccc(O)c3)c(-c3cccc(O)c3)nc2n1 (10 µM)
0: all assays above

COc1cc2c(cc1O)C[C@H]1c3cc(O)c(OC)cc3CC[N@@+]1(C)C2 [Phellodendrine] (10 µM)
0: all assays above

NC(=O)c1cnc(-c2ccc(C3(N)CCC3)cc2)c(-c2ccccc2)c1 (10 µM)
0: all assays above

CCNC(=O)C#Cc1ccc2c(C(=Nc3ccc(CN(C)C)cc3)c3ccccc3)c(O)[nH]c2c1 (2.5 µM)
0: all assays above

c1nc2c(NC3CCCCC3)nc(Nc3ccc(N4CCOCC4)cc3)nc2[nH]1 [Reversine] (10 µM)
1: CHEK2
0: all other assays above

NC(=O)c1ccc(N(C(N)=O)c2c(F)cccc2F)nc1-c1ccc(F)cc1F (10 µM)
0: all assays above

O=C(O)c1cc(N(Cc2ccccc2O)Cc2cc(O)ccc2O)ccc1O [Lavendustin A] (10 µM)
1: CHEK2
0: all other assays above

Cc1cccc(/C=N/Nc2cc(N3CCOCC3)n3nc(-c4ccncc4)cc3n2)c1 (10 µM)
0: all assays above

COC(=O)Nc1ccc(-c2nc(N3CCOCC3)c3cnn(C4CCN(C(=O)OC)CC4)c3n2)cc1 (10 µM)
0: all assays above

COC(=O)Nc1ccc(-c2nc(N3CCOCC3)c3cnn(C4CCN(Cc5cccnc5)CC4)c3n2)cc1 (10 µM)
0: all assays above
